Test results reported in patent publication US20140148782A1, “TISSUE INFUSION SYSTEM AND METHOD” (TWIN STAR MEDICAL, INC., priority 2010, published 2014).

System: ex vivo canine prostates
Test: dye infusion into ex vivo canine prostate with hollow fiber catheters
Parameters: species or system dog
[1] = 1.4-cm hollow fiber catheter, 0.01% dye in saline, 3.6 milliliters per catheter

Cc1cc(-c2ccc(/N=N/c3ccc4c(S(=O)(=O)[O-])cc(S(=O)(=O)[O-])c(N)c4c3O)c(C)c2)ccc1/N=N/c1ccc2c(S(=O)(=O)[O-])cc(S(=O)(=O)[O-])c(N)c2c1O.[Na+].[Na+].[Na+].[Na+] [Evan's blue dye]
infusion pressure at 10 minutes, left lobe [1]: 401 mm Hg | infusion pressure at 10 minutes, right lobe [1]: 480 mm Hg | dye distribution in prostate (5 mm slices after infusion): distributed in each lobe with very little dye traveling into the urethra | backflow (either hollow fiber catheter): No backflow was observed
